Experimental data published in PubChem BioAssay AID2685 (National Center for Advancing Translational Sciences (NCATS), 2010).
The other results are listed elsewhere or left out. The main result of the screen is listed elsewhere. These columns were measured beside it and carry no call. Compounds called inactive in the main read-out are mostly missing here. Potencies come from curve fits of mixed quality, noted in brackets.

Test: qHTS Assay for Lipid Storage Modulators in Drosophila S3 Cells;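 on cell number change: cells counted by Cell Tracker Red CMTPX staining in the red channel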
Conditions: BODIPY lipid droplet fluorescence, 18-24 h; for cell number change: measured here: cell count max response, cells fed with added oleic acid
In short: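 Drosophila S3 cells loaded with oleic acid (400 uM, as added) and compounds at several concentrations; lipid droplets imaged by 488-nm laser-scanning cytometry, 500–530 nm intensity and object ratio to cell channel. Percent activity normalized to 20 uM Triacsin C.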

[1] = measured here: lipid fluorescence (Fed channel) AC50, cells fed with added oleic acid
[2] = measured here: cell number channel AC50, cells fed with added oleic acid

Row | SMILES | AC50 [1] | cell number change | AC50 [2]
1 | Cc1cc(C(=O)C(=O)NC(C)C)c(C)n1-c1ccc([N+](=O)[O-])cc1 | 6.51 µM [rising, partial curve] |  | 
2 | CCNC(=S)NC(=NCc1cccnc1)Nc1nc(C)cc(C)n1 |  | 6.42% | 
3 | COc1ccc(OC)c(C(=O)CSc2nc3c(c(=O)n(C)c(=O)n3C)n2C(C)C)c1 | 3.66 µM [falling, full curve, poor fit] | 0.351% | 
4 | COc1ccc(N(Cc2ccccc2)S(=O)(=O)c2cccc(C(=O)O)c2)cc1 | 3.66 µM [falling, partial curve] | -40.2% | 4.61 µM [falling, full curve]
5 | CC(=O)C1=C(c2ccccc2)NC(=S)NC1c1ccc(O)c(O)c1 (centres undefined) |  | 35.8% | 8.2 µM [rising, partial curve, poor fit]
6 | C=CCn1c(N)c(-c2nc3ccccc3n2C)sc1=S | 29.1 µM [rising, single point] | -11.1% | 
7 | COc1ccc(Nc2nnc(SC(C(=O)Nc3cc(C)ccc3C)c3ccccc3)s2)cc1 (centres undefined) | 0.651 µM [rising, single point] | 32.9% | 0.058 µM [rising, full curve, poor fit]
8 | Cc1ccc(Cn2c(C(=O)NCCCN3CCOCC3)cc3sccc32)cc1 | 8.2 µM [falling, partial curve] | -25.3% | 
9 | O=C(Nc1nc2ccc(Br)cc2s1)c1ccco1 |  | 4.38% | 0.259 µM [rising, full curve, poor fit]
10 | CCN1CCN(C(CNS(=O)(=O)c2ccc(OC)c(C)c2)c2cccnc2)CC1 (centres undefined) |  | 19.4% | 
11 | CCCN1Cc2cccc(C(=O)Nc3ccc4c(c3)OCCO4)c2C1=O |  | -35.4% | 18.4 µM [falling, single point]
12 | Cc1cc(C(=O)OCn2nnc3ccccc3c2=O)c(C)o1 | 29.1 µM [rising, single point] | 49.4% | 7.31 µM [rising, partial curve, poor fit]
13 | COc1ccc(/C=N/Nc2nc(-c3ccc(Cl)cc3)cc(C(F)(F)F)n2)cc1OC |  | 3.29% | 1.16 µM [rising, partial curve]
14 | Cc1ccc(N2CC(C(=O)NCc3nnnn3-c3ccc(C)c(C)c3)CC2=O)cc1 (centres undefined) | 29.1 µM [rising, single point] | 5.34% | 
15 | NC(=O)c1ccc(NC(=O)COC(=O)c2ccc3c(c2)OCO3)cc1 |  | -26.8% | 
16 | CC(=O)Cn1ncc(N2CCCCC2)c(Cl)c1=O | 5.17 µM [falling, single point] |  | 6.51 µM [falling, single point]
17 | COc1cc2cc(C(=O)N(C)C3CCS(=O)(=O)C3)[nH]c2cc1OC (centres undefined) | 29.1 µM [rising, single point] | -9.44% | 
18 | CC(OC(=O)Cc1ccccc1[N+](=O)[O-])C(=O)Nc1ccc(Cl)cn1 (centres undefined) |  | -34.1% | 
19 | O=C(OC(C(=O)NC1CCCCC1)c1ccc(C(F)(F)F)cc1)c1ccco1 (centres undefined) |  | -14.1% | 
20 | O=C(CCC1CCCN(C(=O)c2ccco2)C1)NCc1ccccc1F (centres undefined) | 32.6 µM [falling, partial curve, poor fit] | -40.5% | 18.4 µM [falling, partial curve, poor fit]
21 | CCCCOc1ccc(N(CC(=O)NCc2ccccc2)C(=O)c2csnn2)cc1 |  | 11.4% | 
22 | COc1ccc(-n2c(Cc3cc(=O)[nH]c(=O)[nH]3)nnc2SCC(=O)NC2CCCC2)cc1 |  | 9.79% | 

Row | SMILES | AC50 [1] | cell number change | AC50 [2]
23 | Cc1noc(C)c1CN1C(=O)NC2(CCc3ccccc3C2)C1=O (centres undefined) | 3.66 µM [rising, single point] | 0.849% | 
24 | CCCCCCN(C(=O)CCCCCN1C(=O)NC(c2ccc(-c3ccccc3)cc2)C(C(=O)OCc2ccccc2)=C1C)C(C(=O)NCCCC)c1cccc(C(=O)OC)c1 (centres undefined) | 3.26 µM [rising, full curve, poor fit] | 12% | 
25 | COc1ccc(N2CCN(c3ccc(N)cc3C#N)CC2)cc1 | 6.51 µM [rising, single point] |  | 
26 | CCOC(=O)c1sc(C)c2c(=O)n(CC(=O)c3ccc(Br)cc3)nnc12 | 6.51 µM [falling, single point] | -12.7% | 
27 | O=C(CCl)Oc1ccc2occ(C(=O)c3cccs3)c2c1 |  | 5.83% | 
28 | CCOC(=O)C1=C(COC(=O)CNC(=O)c2cc(OC)c(OC)c(OC)c2)NC(=O)NC1C (centres undefined) |  | -10% | 
29 | CC(C)NC(=O)c1cc(-c2cccs2)on1 | 0.116 µM [falling, full curve, poor fit] | 32.3% | 16.4 µM [rising, single point]
30 | CCCCn1nnnc1SCC(=O)Nc1ccc2c(c1)OCCO2 |  | -7.54% | 
31 | CCOc1cccc2sc(N(CCCN(C)C)C(=O)c3ccc(C(=O)c4ccccc4)cc3)nc12 | 29.1 µM [falling, single point] | -26.9% | 
32 | CN(CC(=O)Nc1ccccc1F)Cc1cccs1 | 2.06 µM [rising, full curve] | -4.7% | 
33 | COc1ccc(CC(=O)N2CCc3cc(OC)c(OC)cc3C2)cc1 | 0.103 µM [falling, full curve, poor fit] | 9.01% | 
34 | CC(NC(=O)COc1ccc(Oc2ccccc2)cc1)C(=O)O (centres undefined) | 0.461 µM [rising, single point] | 3.13% | 
35 | CN(C)CCN(C)Cc1c2ccccc2c(CN(C)CCN(C)C)c2ccccc12 | 23.1 µM [rising, single point] | 21.7% | 
36 | Cc1ccc([N+](=O)[O-])cc1NC(=S)NC(=O)CC(C)(C)C |  | 59.4% | 
37 | C/C(=N\NC(=O)C1CC1)c1ccc(Cl)c(Cl)c1 | 3.26 µM [rising, full curve] | 79.4% | 2.31 µM [rising, full curve]
38 | CC(Sc1ccc(S(=O)(=O)N2CCN(C)CC2)cn1)C(=O)NC1(C#N)CCCCC1 (centres undefined) |  | -17.3% | 
39 | Cc1cc(C)cc(C(=O)N2CCC(C(N)=O)CC2)c1 | 4.61 µM [falling, partial curve] |  | 5.8 µM [falling, single point]
40 | O=C(O)c1cccc(Cl)n1 |  | 12% | 
41 | CC(CC(=O)NNC(=O)c1ccncc1)c1ccccc1 (centres undefined) | 0.0058 µM [rising, full curve] | 4.49% | 
42 | O=C(N/N=C\c1cc(Br)cs1)c1ccncc1 | 3.26 µM [rising, full curve] | 8.43% | 
43 | CC(C)N(Cc1ccccc1)C(=S)NCc1ccccc1 |  | 74.6% | 20.6 µM [rising, single point]
44 | CCOC(=O)CNc1ccc(C(=O)OCC)cc1[N+](=O)[O-] |  | 7.31% | 

Five entries already listed, arranged by heavy-atom count, low to high.
Row | SMILES | AC50 [1] | cell number change | AC50 [2]
40 | O=C(O)c1cccc(Cl)n1 |  | 12% | 
42 | O=C(N/N=C\c1cc(Br)cs1)c1ccncc1 | 3.26 µM [rising, full curve] | 8.43% | 
32 | CN(CC(=O)Nc1ccccc1F)Cc1cccs1 | 2.06 µM [rising, full curve] | -4.7% | 
41 | CC(CC(=O)NNC(=O)c1ccncc1)c1ccccc1 (centres undefined) | 0.0058 µM [rising, full curve] | 4.49% | 
25 | COc1ccc(N2CCN(c3ccc(N)cc3C#N)CC2)cc1 | 6.51 µM [rising, single point] |  | 

Further entries

Row | SMILES | AC50 [1] | cell number change | AC50 [2]
45 | CN(CC(=O)Nc1ccc(N2CCOCC2)cc1)Cc1c(O)ccc2ccccc12 |  | -32.4% | 32.6 µM [falling, single point]
46 | O=C(N/N=C/C=C/c1ccco1)c1cnccn1 |  | -15.9% | 
47 | O=C(Nc1cc(C(F)(F)F)ccc1N1CCOCC1)c1c(F)c(F)c(F)c(F)c1F |  | -14.1% | 
48 | Cc1[nH]c2ccccc2c1/C=C(\C#N)C(=O)NC(C)c1ccccc1 (centres undefined) | 0.731 µM [falling, single point] |  | 
49 | CC(=O)c1nc(-c2ccccc2)sc1C |  | 11.8% | 
50 | O=C(c1ccccc1)N1CCN(C2c3cccc4cccc(c34)C2NS(=O)(=O)c2ccccc2)CC1 (centres undefined) | 0.116 µM [falling, full curve, poor fit] | -19.8% | 
51 | Cc1ccc(C(=O)NCC(=O)OCC(=O)Nc2ccc3[nH]c(=O)[nH]c3c2)cc1 | 20.6 µM [rising, single point] | 16.8% | 
52 | COc1ccccc1NS(=O)(=O)c1cc(NC(=O)c2ccc(Cl)nc2)ccc1Cl |  | 16.2% | 
53 | COCC(=O)Nc1c(C(=O)Nc2ccccc2OC)oc2ccccc12 | 6.51 µM [rising, partial curve, poor fit] |  | 
54 | Clc1ccc(-c2cc(CN3CCOCC3)no2)cc1 | 14.6 µM [rising, partial curve, poor fit] | 21.6% | 
55 | CN(C)CCn1c2c(c(SCC(=O)Nc3ccccc3C(F)(F)F)nc1=O)CCCC2 | 16.4 µM [falling, partial curve] | -36% | 9.2 µM [falling, partial curve]
56 | Cc1ccc(C(=O)c2ccc([N+](=O)[O-])cc2)cc1C | 3.26 µM [rising, partial curve] | 12.5% | 
57 | Cc1cc(N2CCN(c3nc(-c4ccc([N+](=O)[O-])cc4)cs3)CC2)c2ccccc2n1 | 20.6 µM [falling, single point] | -46.2% | 29.1 µM [falling, single point]
58 | O=C(NCc1ccc(Cl)cc1)C(=O)NCC1OCCN1S(=O)(=O)c1cc(F)ccc1F (centres undefined) |  | -16.8% | 
59 | O=C(c1cccc(S(=O)(=O)N2CCOCC2)c1)N1CCN(c2ccc(F)cc2)CC1 | 0.184 µM [falling, full curve, poor fit] | 20.1% | 
60 | O=C(CCNC(=O)c1ccc([N+](=O)[O-])cc1)Nc1ccc(S(=O)(=O)N2CCOCC2)cc1 |  | 43.5% | 18.4 µM [rising, single point]
61 | CCC(CO)NC(=O)c1cccc(S(=O)(=O)N2c3ccccc3CC2C)c1 (centres undefined) | 6.51 µM [falling, single point] | 7.85% | 
62 | N=C1/C(=C/c2cccn2-c2cccc([N+](=O)[O-])c2)C(=O)N=C2SC=CN12 | 1.16 µM [rising, partial curve, poor fit] | 14.8% | 
63 | CCCCCCCn1c(=O)c(C(=O)OC)c(N)c2ccccc21 | 2.59 µM [falling, full curve] | -70% | 3.26 µM [falling, full curve]
64 | Cc1scc(C(=O)NCc2ccco2)c1-c1ccccc1 |  | -32% | 32.6 µM [falling, single point]
